Among all 330,000 compounds or so, about 100 (0.03%) were called active. Inconclusive means that the source gave no clear call. Such entries were picked first, then a sample of the others. The call rests on the fitted dose curve; in most records, active means well fitted inhibition curve with a large enough effect; inconclusive means small, poorly fitted or top-dose-only effect; inactive means flat fitted curve, though single readings scatter. Potencies of inconclusive entries are doubtful fits and often do not repeat.
These compounds were tested on Chaperonin Mm-Cpn (Methanococcus maripaludis) (assay: Inhibitors of TCP-1 ring complex (TRiC) of Methanococcus maripaludis (MmCpn): qHTS). Conditions: purified Mm-Cpn ATPase, ADP Transcreener TR-FRET.
In short: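 Quantitative HTS used 25 nM Mm-CPN and 10 uM ATP in magnesium/KCl Tris buffer, pH 7.4, with 1 mM DTT. Hydrolysis ran 30 min at 37°C; ADP was read by HTRF.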
Further: nearly all actives have a fitted effect of over 80% in size.
Potency means the concentration at half of the fitted maximal effect.
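Wherever Potency is given: enzyme at 25 nM with ATP substrate at 10 µM during the reaction.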

Row | Structure (SMILES) | Potency
1 | CCOc1ccccc1CNC(=O)c1ccc(Sc2ccc(Cl)cc2)c(NC(C)=O)c1 | inconclusive: 100 µM [inhibitor, partial curve, poor fit]
2 | CCOC(=O)c1cc(C#N)c(N2CCN(c3ccccn3)CC2)nc1-c1ccccc1 | inconclusive: 100 µM [inhibitor, single point]
3 | Cc1nc(N2CCN(c3ccccn3)CC2)c2c(C)c(C(=O)Nc3ccc(F)cc3Cl)sc2n1 | inconclusive: 100 µM [inhibitor, partial curve, poor fit]
4 | O=C(O)c1ccccc1-c1csc(-c2ccccc2)n1 | inconclusive: 794 µM [inhibitor, partial curve, poor fit]
5 | CS(=O)(=O)Nc1ccc(C2=NN(C(=O)c3ccco3)C(c3ccccc3F)C2)cc1 (configuration not stated) | inconclusive: 89.1 µM [inhibitor, single point]
6 | Cc1ccc(C2=C(c3ccc([N+](=O)[O-])cc3)C(=O)OC2)cc1C | inconclusive: 112 µM [inhibitor, single point]
7 | CC1=NN(C(N)=S)C(=O)C1N=Nc1ccc(Cl)cc1Cl (configuration not stated) | inconclusive: 355 µM [inhibitor, partial curve, poor fit]
8 | O=C(N/N=C/c1ccc([N+](=O)[O-])o1)c1ccc2c(c1)OCO2 | inactive
9 | CCC(C)Nc1ncnc2c1cnn2Cc1ccc(Cl)cc1 (configuration not stated) | inconclusive: 316 µM [inhibitor, partial curve, poor fit]
10 | COc1ccccc1C1CC(c2ccc(Br)cc2)=NN1C(=O)c1cccnc1 (configuration not stated) | inconclusive: 355 µM [inhibitor, partial curve, poor fit]
11 | O=C(CSc1nnc2scc(-c3ccccc3)n12)NCc1ccc2c(c1)OCO2 | inactive
12 | Cc1cnc(C(=O)OCC(=O)c2ccc(Br)s2)cn1 | inconclusive: 70.8 µM [inhibitor, partial curve, poor fit]
13 | O=C(CSc1ccccc1F)NCCCN1CCCC1=O | inactive
14 | Nc1ccccc1C(=O)Nc1cccc2ccccc12 | inactive
15 | O=C(CSc1ccc(-c2ccc(F)cc2)nn1)N1CCOCC1 | inconclusive: 89.1 µM [inhibitor, single point]
16 | O=C(O)Cc1cc(C(=O)Nc2ccc(Br)cc2)sc1-c1ccccc1 | inconclusive: 141 µM [inhibitor, partial curve]
17 | CCOc1ccc(CN2CCN(C3CCC3)CC2CCO)cc1 (configuration not stated) | inconclusive: 100 µM [inhibitor, single point]
18 | CCOC(=O)C1=C(C)Nc2ccccc2N=C1NC(=O)/C=C/c1ccc(OC)cc1OC | inconclusive: 70.8 µM [inhibitor, single point]
19 | COc1cc2cc(C#N)c(SCC(=O)N3CCOCC3)nc2cc1OC | inconclusive: 100 µM [inhibitor, single point]
20 | COCCN=C1Sc2nc3ccc(C)cc3cc2CN1Cc1cccs1 | inactive
21 | CC12CCCCC1(O)[N+](=O)C1=C(CCCC1)N2[O-] (configuration not stated) | inactive
22 | N#Cc1c(NC(=O)C2CCCO2)sc2c1CCCCCC2 (configuration not stated) | inconclusive: 22.4 µM [inhibitor, single point]
23 | O=C(Cc1ccsc1)Nc1ccccc1F | inactive
24 | N#Cc1ccccc1NC(=S)NC(=O)C1CCC1 | inconclusive: 28.2 µM [inhibitor, partial curve, poor fit]

Another view of part of the listing above:
O=C(N/N=C/c1ccc([N+](=O)[O-])o1)c1ccc2c(c1)OCO2
  Potency: inactive
CCC(C)Nc1ncnc2c1cnn2Cc1ccc(Cl)cc1 (configuration not stated)
  Potency: inconclusive: 316 µM [inhibitor, partial curve, poor fit]
COc1ccccc1C1CC(c2ccc(Br)cc2)=NN1C(=O)c1cccnc1 (configuration not stated)
  Potency: inconclusive: 355 µM [inhibitor, partial curve, poor fit]

Going on with the list.

Row | Structure (SMILES) | Potency
25 | Cc1nn2c(N3CCN(c4ccccn4)CC3)cc(C(C)C)nc2c1-c1ccccc1 | inconclusive: 56.2 µM [inhibitor, single point]
26 | O=C(OCC#CCNc1nnc(-c2cccc3ccccc23)o1)c1cccs1 | inactive
27 | COc1ccc2c(c1)c(C(=O)CN1CCC3(CC1)OCCO3)c(C)n2C | inconclusive: 44.7 µM [inhibitor, single point]
28 | Cc1[nH]c2ccccc2c1C(=O)C(=O)NCC1CCCO1 (configuration not stated) | inconclusive: 100 µM [inhibitor, single point]
29 | CCCc1nnc(SCC(=O)NC2CCCC2)n1CCOC | inconclusive: 56.2 µM [inhibitor, single point]
30 | COc1ccc(-c2noc(Cc3ccccc3OC)n2)cc1 | inactive
31 | CC1=CC(C)(C)N=C(Nc2ccc(C)cc2)S1 | inactive
32 | Cc1ccc(S(=O)(=O)N2CCN(C(=O)c3ccc(N4CCCC4)c([N+](=O)[O-])c3)CC2)cc1 | inactive
33 | O=S(=O)(c1ccc2nc(N3CCN(c4ccccc4F)CC3)ccc2c1)N1CCCCC1 | inconclusive: 100 µM [inhibitor, single point]
34 | Cc1ccc(C(=O)C(C)OC(=O)c2cc3cc([N+](=O)[O-])ccc3oc2=O)cc1 (configuration not stated) | inactive
35 | C=CCn1c(C)cc(C(=O)CN2NS(=O)(=O)c3ccccc3C2=O)c1C | inconclusive: 17.8 µM [inhibitor, single point]
36 | c1ccc2c(c1)N1CCCN=C1N2CCN1CCCCC1 | inconclusive: 79.4 µM [inhibitor, single point]
37 | CN(CC(=O)Nc1cccc(F)c1)C(=O)c1ccccc1OCCOc1ccccc1 | inactive
38 | CC(C)Cc1ccc(C(C)C(=O)Nc2ccc(O)cc2)cc1 (configuration not stated) | inconclusive: 22.4 µM [inhibitor, single point]
39 | Cc1ccc(C(=O)NC(=S)Nc2ccc(Oc3ccc(Cl)cc3)cc2)cc1 | inactive
40 | Oc1ccc(N2CCN(c3nc(-c4cccs4)nc4ccccc34)CC2)cc1 | inactive
41 | CCC(=O)Nc1nnc(-c2cccs2)s1 | inconclusive: 70.8 µM [inhibitor, single point]
42 | CSCc1c(C(=O)NC2CCCc3ccccc32)oc2ccccc12 (configuration not stated) | inconclusive: 22.4 µM [inhibitor, single point]
43 | COc1cc(C#N)c(NC(=O)CN2CCC(C(N)=O)CC2)cc1OC | inconclusive: 100 µM [inhibitor, single point]
44 | O=C1Cc2ccccc2C(c2ccc(Br)cc2)N1 (configuration not stated) | inconclusive: 25.1 µM [inhibitor, single point]
45 | Cc1ccnc(SCC(=O)c2ccc([N+](=O)[O-])cc2)n1 | inactive
46 | CCCCCC(=O)Nc1nc(C)c(-c2csc(Nc3ccccc3OC)n2)s1 | inconclusive: 100 µM [inhibitor, single point]
47 | CCOC(=O)N1CCN(S(=O)(=O)N2CCCC(C(=O)NCCCN3CCCCC3)C2)CC1 (configuration not stated) | inconclusive: 25.1 µM [inhibitor, single point]
48 | COc1ccc(CNC(=O)c2nn(C)c3c2CS(=O)(=O)c2ccccc2-3)cc1 | inactive

Row | Structure (SMILES) | Potency
49 | CCc1ccc(Nc2n[n+](-c3ccccc3)c(-c3ccc(OC)c(Br)c3)s2)cc1 | inconclusive: 39.8 µM [inhibitor, partial curve, poor fit]
50 | O=C(COC(=O)c1ccc2ncsc2c1)Nc1ccc(Cl)cc1 | inconclusive: 50.1 µM [inhibitor, single point]
51 | CSc1ccc(-c2c(C#N)c(N)nc3c2c(C)nn3-c2ccccc2)cc1 | inconclusive: 100 µM [inhibitor, partial curve, poor fit]
52 | N#CCCN1CCN(C(=S)c2ccc(-c3ccc(Cl)cc3)o2)CC1 | inconclusive: 100 µM [inhibitor, single point]
53 | S=C(c1ccc(Br)cc1)N1CCCC1 | inactive
54 | CC(C)CCSc1nc(N)c(C#N)cc1C#N | inconclusive: 100 µM [inhibitor, single point]
55 | NS(=O)(=O)c1ccc(CCNC(=O)CNC(=O)c2ccc(Br)o2)cc1 | inconclusive: 7.94 µM [inhibitor, single point]
56 | Cc1ccc(N2C(=O)C3C(C2=O)C2C=CC3C23CC3)c([N+](=O)[O-])c1 (configuration not stated) | inconclusive: 100 µM [inhibitor, single point]
57 | CCc1ccc(-c2nnn(CCC(=O)OC)n2)cc1 | inactive
58 | CC1CCN(CCCCOc2ccc(F)cc2)CC1 | inconclusive: 70.8 µM [inhibitor, single point]
59 | CCC1(CC)C(=O)NC(=O)NC1=NCCc1c[nH]c2ccccc12 | inconclusive: 89.1 µM [inhibitor, single point]
60 | CCn1ccnc1CN(C)C(=O)CC1C(=O)NCCN1Cc1c(F)cccc1Cl (configuration not stated) | inactive
61 | Cn1cccc1C(=O)NC(=O)COC(=O)Cc1coc2ccc3ccccc3c12 | inconclusive: 70.8 µM [inhibitor, single point]
62 | COc1ccc(CN(C)S(=O)(=O)c2nnc(NC(=O)c3ccc(C)cc3)s2)cc1OC | inconclusive: 39.8 µM [inhibitor, single point]
63 | COc1cc(OC)c(C(=O)Nc2cccc(C(C)=O)c2)cc1OC | inactive
64 | Cc1ccc(S(=O)(=O)N[C@H](C(=O)Oc2ccc3c(C(F)(F)F)cc(=O)oc3c2)c2ccccc2)cc1 | inactive
65 | COc1ccc(C(=O)N/N=C/c2ccc(N3CCOCC3)o2)cc1OC | inactive
66 | Cc1ccc(S(=O)(=O)n2c3ccc(Cl)cc3c3nc(C)sc32)cc1 | inactive
67 | CC(C)(CS(=O)(=O)[O-])NC(=O)CC[N+](C)(C)CCO | inconclusive: 100 µM [inhibitor, single point]
68 | C[C@]12c3[nH]c4cc(-c5ccco5)ccc4c3CCN1C(=O)[C@@H](CC(=O)NCCC1=CCCCC1)C[C@@H]2C(=O)N1CCCCC1 | inactive
69 | COc1cccc2cc(C(=O)NCCN3CCOCC3)oc12 | inconclusive: 501 µM [inhibitor, partial curve, poor fit]
70 | C=CCn1c(=O)c2ccccc2n2c(SCC(N)=O)nnc12 | inconclusive: 11.2 µM [inhibitor, single point]
71 | COc1ccc(Cc2nnc(NN)[nH]c2=O)cc1OC | inactive
72 | CC(OC(=O)CCc1nc2ccccc2[nH]c1=O)c1ccccc1 (configuration not stated) | inconclusive: 501 µM [inhibitor, partial curve, poor fit]
